What all share (assay): co-IP
The target in assay [1] is T1, Flag-PLK4 full length (wild type) (human) (UniProt O00444).
T1 sequence: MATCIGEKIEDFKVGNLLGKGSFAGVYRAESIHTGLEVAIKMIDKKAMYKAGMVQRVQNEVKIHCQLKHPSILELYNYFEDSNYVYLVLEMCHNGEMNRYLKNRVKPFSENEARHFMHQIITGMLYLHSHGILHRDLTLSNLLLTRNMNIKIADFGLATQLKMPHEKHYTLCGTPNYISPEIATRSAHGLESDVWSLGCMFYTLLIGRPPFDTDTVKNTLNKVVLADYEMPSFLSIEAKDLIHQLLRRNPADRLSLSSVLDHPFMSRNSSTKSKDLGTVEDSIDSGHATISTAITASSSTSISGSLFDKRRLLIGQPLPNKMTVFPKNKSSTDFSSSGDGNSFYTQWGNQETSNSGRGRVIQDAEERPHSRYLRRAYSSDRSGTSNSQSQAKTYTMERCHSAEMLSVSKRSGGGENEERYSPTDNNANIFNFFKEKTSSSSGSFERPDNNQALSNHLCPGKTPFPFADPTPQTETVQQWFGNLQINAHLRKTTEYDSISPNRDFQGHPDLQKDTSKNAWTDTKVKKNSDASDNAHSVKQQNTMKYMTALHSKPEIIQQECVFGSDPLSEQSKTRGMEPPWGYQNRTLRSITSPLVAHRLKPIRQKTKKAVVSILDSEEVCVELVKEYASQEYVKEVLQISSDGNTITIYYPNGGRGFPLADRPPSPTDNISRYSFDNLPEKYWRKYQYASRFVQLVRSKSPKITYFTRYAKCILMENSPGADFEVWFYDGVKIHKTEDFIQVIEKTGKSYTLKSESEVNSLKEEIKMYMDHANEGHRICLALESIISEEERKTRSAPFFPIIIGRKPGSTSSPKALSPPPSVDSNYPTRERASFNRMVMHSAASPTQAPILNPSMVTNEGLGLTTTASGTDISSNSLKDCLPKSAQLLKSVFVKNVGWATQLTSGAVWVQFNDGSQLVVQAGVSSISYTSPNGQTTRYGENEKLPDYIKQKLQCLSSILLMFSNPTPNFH

Amino acid sequences for entries named in this document (tags omitted).
UniProt Q9Y4B6: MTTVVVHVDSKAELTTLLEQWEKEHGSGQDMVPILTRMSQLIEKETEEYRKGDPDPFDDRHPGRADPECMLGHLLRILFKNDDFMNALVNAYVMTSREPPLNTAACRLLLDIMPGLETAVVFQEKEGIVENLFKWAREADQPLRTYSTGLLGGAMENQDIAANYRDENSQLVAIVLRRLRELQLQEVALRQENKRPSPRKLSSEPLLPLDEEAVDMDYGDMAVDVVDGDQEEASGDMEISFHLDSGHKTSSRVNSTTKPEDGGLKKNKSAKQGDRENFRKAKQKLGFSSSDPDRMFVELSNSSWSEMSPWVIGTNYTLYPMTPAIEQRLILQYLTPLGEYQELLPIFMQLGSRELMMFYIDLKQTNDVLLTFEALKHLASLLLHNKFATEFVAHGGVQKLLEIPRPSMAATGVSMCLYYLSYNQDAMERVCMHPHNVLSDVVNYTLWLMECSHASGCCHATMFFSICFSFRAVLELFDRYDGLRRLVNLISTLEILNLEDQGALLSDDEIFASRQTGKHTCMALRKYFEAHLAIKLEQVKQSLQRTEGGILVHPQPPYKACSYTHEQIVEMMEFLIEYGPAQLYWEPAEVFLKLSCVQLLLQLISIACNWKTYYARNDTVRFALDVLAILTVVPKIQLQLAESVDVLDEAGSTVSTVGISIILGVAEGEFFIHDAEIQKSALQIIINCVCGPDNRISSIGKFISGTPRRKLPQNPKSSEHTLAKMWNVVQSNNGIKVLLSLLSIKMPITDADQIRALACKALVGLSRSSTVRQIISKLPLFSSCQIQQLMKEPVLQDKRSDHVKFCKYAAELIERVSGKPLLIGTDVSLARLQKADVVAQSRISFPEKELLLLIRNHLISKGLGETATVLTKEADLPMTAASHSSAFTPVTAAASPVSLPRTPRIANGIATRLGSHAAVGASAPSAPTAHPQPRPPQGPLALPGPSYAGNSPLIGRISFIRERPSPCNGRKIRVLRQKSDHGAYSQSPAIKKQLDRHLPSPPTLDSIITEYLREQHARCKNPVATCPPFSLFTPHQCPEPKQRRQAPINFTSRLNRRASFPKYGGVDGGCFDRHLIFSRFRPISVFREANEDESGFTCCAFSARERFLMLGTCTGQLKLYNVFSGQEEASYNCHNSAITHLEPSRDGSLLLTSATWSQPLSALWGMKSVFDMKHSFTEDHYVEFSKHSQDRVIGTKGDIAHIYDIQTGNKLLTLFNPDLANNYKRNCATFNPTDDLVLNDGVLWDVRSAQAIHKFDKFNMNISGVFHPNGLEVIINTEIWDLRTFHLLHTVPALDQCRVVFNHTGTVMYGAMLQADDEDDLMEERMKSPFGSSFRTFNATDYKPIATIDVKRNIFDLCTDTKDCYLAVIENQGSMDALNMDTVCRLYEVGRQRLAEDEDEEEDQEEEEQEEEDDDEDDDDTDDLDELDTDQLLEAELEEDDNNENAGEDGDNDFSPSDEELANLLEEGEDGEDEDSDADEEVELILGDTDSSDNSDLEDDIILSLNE
UniProt O95071: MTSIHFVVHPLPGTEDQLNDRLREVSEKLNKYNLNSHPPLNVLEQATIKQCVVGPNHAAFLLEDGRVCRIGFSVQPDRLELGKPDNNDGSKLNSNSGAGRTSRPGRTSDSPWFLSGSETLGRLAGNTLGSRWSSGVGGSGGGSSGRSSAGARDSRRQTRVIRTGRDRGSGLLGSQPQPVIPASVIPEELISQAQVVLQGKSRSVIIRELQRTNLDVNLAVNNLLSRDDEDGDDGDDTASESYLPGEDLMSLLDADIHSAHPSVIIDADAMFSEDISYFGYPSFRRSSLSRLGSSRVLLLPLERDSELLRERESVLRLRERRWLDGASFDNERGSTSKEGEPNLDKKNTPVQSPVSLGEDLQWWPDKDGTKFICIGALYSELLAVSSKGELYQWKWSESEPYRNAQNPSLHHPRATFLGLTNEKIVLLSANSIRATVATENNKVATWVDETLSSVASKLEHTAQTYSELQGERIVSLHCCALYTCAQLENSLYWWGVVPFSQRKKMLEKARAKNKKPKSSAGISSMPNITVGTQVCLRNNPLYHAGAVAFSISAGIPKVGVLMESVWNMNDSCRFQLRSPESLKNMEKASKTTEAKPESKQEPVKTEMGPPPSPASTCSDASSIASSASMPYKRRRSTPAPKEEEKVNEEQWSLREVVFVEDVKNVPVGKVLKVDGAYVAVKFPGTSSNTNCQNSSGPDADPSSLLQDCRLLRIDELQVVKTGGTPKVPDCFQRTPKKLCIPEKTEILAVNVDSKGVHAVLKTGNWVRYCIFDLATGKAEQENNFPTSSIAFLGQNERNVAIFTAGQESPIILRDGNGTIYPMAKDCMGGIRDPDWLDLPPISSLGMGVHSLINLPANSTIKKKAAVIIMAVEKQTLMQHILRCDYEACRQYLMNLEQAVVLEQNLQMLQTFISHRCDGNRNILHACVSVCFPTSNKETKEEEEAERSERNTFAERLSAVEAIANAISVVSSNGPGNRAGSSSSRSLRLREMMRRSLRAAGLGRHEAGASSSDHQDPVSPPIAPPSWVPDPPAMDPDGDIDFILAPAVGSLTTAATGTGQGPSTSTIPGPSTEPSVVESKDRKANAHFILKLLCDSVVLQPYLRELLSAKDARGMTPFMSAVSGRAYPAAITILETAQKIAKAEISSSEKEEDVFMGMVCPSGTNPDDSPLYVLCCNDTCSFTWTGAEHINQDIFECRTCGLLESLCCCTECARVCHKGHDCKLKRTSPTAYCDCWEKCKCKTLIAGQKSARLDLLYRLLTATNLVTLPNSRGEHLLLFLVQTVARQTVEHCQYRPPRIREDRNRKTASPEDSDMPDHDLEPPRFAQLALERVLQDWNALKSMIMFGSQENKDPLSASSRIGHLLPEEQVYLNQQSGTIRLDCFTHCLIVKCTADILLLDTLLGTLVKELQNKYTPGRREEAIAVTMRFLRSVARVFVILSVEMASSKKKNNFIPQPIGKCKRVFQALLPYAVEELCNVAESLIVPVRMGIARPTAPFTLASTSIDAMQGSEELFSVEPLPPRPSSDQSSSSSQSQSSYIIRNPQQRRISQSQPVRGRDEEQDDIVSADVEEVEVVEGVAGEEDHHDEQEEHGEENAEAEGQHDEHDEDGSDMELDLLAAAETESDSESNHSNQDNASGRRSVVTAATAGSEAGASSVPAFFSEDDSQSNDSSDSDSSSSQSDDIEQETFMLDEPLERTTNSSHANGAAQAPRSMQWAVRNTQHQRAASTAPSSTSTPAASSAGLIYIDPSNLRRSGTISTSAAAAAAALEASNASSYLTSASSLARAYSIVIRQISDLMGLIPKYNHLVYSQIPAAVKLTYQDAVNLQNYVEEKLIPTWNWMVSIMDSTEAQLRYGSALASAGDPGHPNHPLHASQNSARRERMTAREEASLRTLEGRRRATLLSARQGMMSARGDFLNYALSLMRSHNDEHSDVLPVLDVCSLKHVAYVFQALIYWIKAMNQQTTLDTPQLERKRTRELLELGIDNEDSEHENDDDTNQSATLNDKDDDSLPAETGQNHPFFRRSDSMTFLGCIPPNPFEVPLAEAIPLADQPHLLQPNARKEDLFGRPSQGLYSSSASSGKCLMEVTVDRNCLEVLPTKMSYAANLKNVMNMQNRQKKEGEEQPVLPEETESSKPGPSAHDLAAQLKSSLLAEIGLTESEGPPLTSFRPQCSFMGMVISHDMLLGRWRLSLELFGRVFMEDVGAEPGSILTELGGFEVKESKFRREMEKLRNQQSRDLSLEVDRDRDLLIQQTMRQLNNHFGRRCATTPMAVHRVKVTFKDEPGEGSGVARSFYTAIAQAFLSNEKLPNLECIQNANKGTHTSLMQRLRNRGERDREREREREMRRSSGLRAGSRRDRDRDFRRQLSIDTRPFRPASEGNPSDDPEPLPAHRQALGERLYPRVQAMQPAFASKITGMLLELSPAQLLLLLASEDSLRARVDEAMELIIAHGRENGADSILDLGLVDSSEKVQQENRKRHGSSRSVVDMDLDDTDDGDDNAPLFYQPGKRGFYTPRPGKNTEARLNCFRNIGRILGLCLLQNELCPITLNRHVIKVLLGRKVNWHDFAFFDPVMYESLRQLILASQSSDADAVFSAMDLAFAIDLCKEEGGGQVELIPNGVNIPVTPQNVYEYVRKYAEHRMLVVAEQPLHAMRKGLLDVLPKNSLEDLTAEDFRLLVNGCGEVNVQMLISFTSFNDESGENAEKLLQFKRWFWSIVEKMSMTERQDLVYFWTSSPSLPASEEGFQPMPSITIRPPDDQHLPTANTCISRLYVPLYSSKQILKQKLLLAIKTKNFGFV
UniProt Q16531: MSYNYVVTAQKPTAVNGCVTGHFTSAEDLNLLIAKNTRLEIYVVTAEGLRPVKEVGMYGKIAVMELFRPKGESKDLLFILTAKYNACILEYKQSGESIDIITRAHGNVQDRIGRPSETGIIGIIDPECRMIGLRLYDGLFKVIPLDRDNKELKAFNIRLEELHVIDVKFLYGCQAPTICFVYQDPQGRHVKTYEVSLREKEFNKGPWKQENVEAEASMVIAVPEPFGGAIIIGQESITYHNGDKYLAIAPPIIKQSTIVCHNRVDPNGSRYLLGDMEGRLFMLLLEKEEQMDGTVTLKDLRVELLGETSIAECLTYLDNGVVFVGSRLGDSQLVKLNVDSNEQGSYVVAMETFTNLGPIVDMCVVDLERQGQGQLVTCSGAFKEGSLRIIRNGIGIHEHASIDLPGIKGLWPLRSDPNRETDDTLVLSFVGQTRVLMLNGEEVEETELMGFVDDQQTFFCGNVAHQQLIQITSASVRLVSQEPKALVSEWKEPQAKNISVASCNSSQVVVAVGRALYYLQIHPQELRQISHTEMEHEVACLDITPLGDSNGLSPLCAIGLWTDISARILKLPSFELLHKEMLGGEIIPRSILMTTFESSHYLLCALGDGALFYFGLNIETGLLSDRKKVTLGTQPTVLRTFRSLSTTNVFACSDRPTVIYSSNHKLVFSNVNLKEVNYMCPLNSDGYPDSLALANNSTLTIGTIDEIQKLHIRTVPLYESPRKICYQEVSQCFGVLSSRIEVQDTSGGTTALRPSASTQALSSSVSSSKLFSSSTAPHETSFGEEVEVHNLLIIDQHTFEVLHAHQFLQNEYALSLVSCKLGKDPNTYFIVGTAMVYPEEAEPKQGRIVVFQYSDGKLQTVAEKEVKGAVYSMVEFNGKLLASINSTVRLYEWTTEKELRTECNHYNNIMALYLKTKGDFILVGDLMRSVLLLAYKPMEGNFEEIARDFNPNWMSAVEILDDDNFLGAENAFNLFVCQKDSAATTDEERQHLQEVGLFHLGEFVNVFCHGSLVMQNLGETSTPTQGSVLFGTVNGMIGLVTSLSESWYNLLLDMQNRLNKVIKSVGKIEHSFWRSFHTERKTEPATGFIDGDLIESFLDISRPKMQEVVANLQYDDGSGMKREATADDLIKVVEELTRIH
UniProt Q13619: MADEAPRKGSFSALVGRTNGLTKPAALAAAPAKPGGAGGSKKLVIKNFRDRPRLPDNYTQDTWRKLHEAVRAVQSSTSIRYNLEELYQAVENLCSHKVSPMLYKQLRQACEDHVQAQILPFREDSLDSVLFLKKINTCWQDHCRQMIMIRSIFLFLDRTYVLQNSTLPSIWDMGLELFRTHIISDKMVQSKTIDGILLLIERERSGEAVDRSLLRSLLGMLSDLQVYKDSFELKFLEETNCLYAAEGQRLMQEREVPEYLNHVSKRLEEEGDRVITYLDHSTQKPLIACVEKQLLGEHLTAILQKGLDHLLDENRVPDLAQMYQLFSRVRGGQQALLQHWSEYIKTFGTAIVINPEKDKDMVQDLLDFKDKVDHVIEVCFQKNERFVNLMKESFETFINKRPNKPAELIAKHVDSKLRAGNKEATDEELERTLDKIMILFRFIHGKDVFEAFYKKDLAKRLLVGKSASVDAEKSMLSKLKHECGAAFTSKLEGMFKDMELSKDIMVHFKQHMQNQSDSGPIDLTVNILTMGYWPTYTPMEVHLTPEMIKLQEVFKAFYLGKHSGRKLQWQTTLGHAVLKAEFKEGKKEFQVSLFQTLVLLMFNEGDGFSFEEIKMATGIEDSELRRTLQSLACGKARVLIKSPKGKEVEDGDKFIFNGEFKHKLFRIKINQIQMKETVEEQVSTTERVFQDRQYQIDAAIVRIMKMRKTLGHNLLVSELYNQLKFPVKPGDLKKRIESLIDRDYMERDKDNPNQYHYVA

For assay [2], the target named is T1, Flag-PLK4 full length (wild type) (human). The source holds these as a separate data set.
Assay [3] shares this target. The source holds these as a separate data set.
In assay [4] the target is T2, Flag-PLK4 K41R (kinase-dead) (human) (UniProt O00444).
T2 sequence: T1 sequence with K41R

The target of assay [5] is T3, Flag-PLK4, immunoprecipitated and dephosphorylated with λ-phosphatase (human) (UniProt O00444).
T3 sequence (chain, dephosphorylated with λ-phosphatase): T1 sequence

Assay [6] deals with T4, Flag-PLK4-AA (S285A+T289A) (human) (UniProt O00444).
T4 sequence: T1 sequence with S285A, T289A

The target of assay [7] is DCAF1 (endogenous) (human (endogenous in HEK293T)) (UniProt Q9Y4B6).
Assay [8] shares this target. This is another data set of the same source.

This is an account of results in paper doi:10.1101/2023.09.13.555514.

Substitutions are numbered along the chain they refer to. Where two headings read alike, the source gives them in different places. Results are given in words; binding and its absence hold for the method and conditions named. In cells and extracts the contact can be indirect. Some results given as binding are weak or reduced against the parent protein; the word gives no strength. For some of these results: Tags and fused reporters may be left off the sequences shown.

Regarding HA-DCAF1 (from UniProt Q9Y4B6 1-1507), the binding entry in assay [1] is listed as “binds”.
Still for that read-out and setting: the same measure for EDD (from UniProt O95071 1-2799): “no binding”.
Turning to “DNA-damage binding protein 1 (DDB1) (from UniProt Q16531 1-1140)”, the binding result in assay [1] and in assay [2] was “binds” throughout.
For “DCAF1 (endogenous) (from UniProt Q9Y4B6 1-1507)”, the binding result in assay [3] was “binds weakly”; in assay [4], “binds”; in assay [2] it was “binds”; in assay [5] it was “binds”; in assay [6], “binds”.
CUL4B (from UniProt Q13620 1-913): the binding result in assay [2] was “binds”.
For the molecule CUL4A (from UniProt Q13619 1-759), in assay [2], the binding result is on record as “binds”.

B1: PLK4 (endogenous) (protein, UniProt O00444 1-970)
chain: T1 sequence
Turning to B1, the binding entry in assay [7] is recorded as “binds”; in assay [8], “binds weakly”.
